# Measurements reported in the supplement of paper PMC8728848.
# The other results are listed elsewhere or left out.
# B1: PX14379D-pdi-530-26-530 (Parabacteroides distasonis) (protein)
# chain: DETVYDKLPADDFGQSTAELNALIGNSHNTMKKFWTEYMHLSECSGSMAVTPTRRGGDWYDGGQYREIYMHTWTSQTSRVKSAWKAATEAIGTCNEAIRKLQNSEILTEEEKAQDVADLRGVRAFWIYVMMDYWGNIPLLTEFHPTDKVFPGNSSRQEVFDWLIQEVEEIKDICPPATTENYGSFTQGAAYSLLAKLYLNAEAWGVTFSGNAYQKVIDNCDKVMAMGYILEPNWKDNFSVTNENSKEAILAATFSSSDTGNDGNVKNELHNNTLHYKDYLSLGITASGTWNGICAQPEYVRLFDEEDARLDGTFLTGLMIDKSTGKPIMTDHNNELNHTIDVNMIPGMEYDGTNWSAVEQHDGARCFKWEFASDLTSSMGNDFHIFRLADIYLMKAEALLRGGGSVSEATALVNTIRERGYGNSDHNYATVTLKEVQLERRLELAWEVYSRQDDIRFGCFTTGMWPQSNCERKADDYLKLLPVSQDAWQVNPNLKQNPGYAAFSK
# Assays:
# Experiment in all cases: glycan array binding signal (z-score within array); higher = stronger binding
# Conditions in all cases: glycan notation: IUPAC condensed, linker removed
# [1] = molecular target: Gal(b1-4)GlcNAc(b1-3)Gal(b1-4)Glc
# Summary of the method: (§1)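 The binding signal is a Z-score computed within each array. Data were drawn from 3228 arrays in the Consortium for Functional Glycomics database, restricted to those with a known protein sequence. Scores were averaged over arrays of the same protein sequence at different concentrations or buffers, and over linkers, and negative values can be taken as non-binding.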
# [2] = molecular target: Gal(b1-4)GlcNAc(b1-3)Gal(b1-4)GlcNAc
# Summary of the method: as §1
# [3] = molecular target: Gal(b1-4)GlcNAc(b1-3)Gal(b1-4)GlcNAc(b1-2)Man(a1-3)[Gal(b1-4)GlcNAc(b1-3)Gal(b1-4)GlcNAc(b1-2)Man(a1-6)]Man(b1-4)GlcNAc(b1-4)GlcNAc
# Summary of the method: as §1
# [4] = molecular target: Gal(b1-4)GlcNAc(b1-3)Gal(b1-4)GlcNAc(b1-2)Man(a1-3)[Gal(b1-4)GlcNAc(b1-3)Gal(b1-4)GlcNAc(b1-2)Man(a1-6)]Man(b1-4)GlcNAc(b1-4)[Fuc(a1-6)]GlcNAc
# Summary of the method: as §1
# [5] = molecular target: Gal(b1-4)GlcNAc(b1-3)Gal(b1-4)GlcNAc(b1-2)[Gal(b1-4)GlcNAc(b1-3)Gal(b1-4)GlcNAc(b1-6)]Man(a1-6)[Gal(b1-4)GlcNAc(b1-3)Gal(b1-4)GlcNAc(b1-2)Man(a1-3)]Man(b1-4)GlcNAc(b1-4)GlcNAc
# Summary of the method: as §1
# [6] = molecular target: Gal(b1-4)GlcNAc(b1-3)Gal(b1-4)GlcNAc(b1-2)[Gal(b1-4)GlcNAc(b1-3)Gal(b1-4)GlcNAc(b1-6)]Man(a1-6)[Gal(b1-4)GlcNAc(b1-3)Gal(b1-4)GlcNAc(b1-2)Man(a1-3)]Man(b1-4)GlcNAc(b1-4)[Fuc(a1-6)]GlcNAc
# Summary of the method: as §1
# [7] = molecular target: Gal(b1-4)GlcNAc(b1-3)Gal(b1-4)GlcNAc(b1-3)Gal(b1-4)GlcNAc
# Summary of the method: as §1
# [8] = molecular target: Gal(b1-4)GlcNAc(b1-3)Gal(b1-4)GlcNAc(b1-3)Gal(b1-4)GlcNAc(b1-2)Man(a1-3)[Gal(b1-4)GlcNAc(b1-3)Gal(b1-4)GlcNAc(b1-3)Gal(b1-4)GlcNAc(b1-2)Man(a1-6)]Man(b1-4)GlcNAc(b1-4)GlcNAc
# Summary of the method: as §1
# [9] = molecular target: Gal(b1-4)GlcNAc(b1-3)Gal(b1-4)GlcNAc(b1-3)Gal(b1-4)GlcNAc(b1-2)Man(a1-3)[Gal(b1-4)GlcNAc(b1-3)Gal(b1-4)GlcNAc(b1-3)Gal(b1-4)GlcNAc(b1-2)Man(a1-6)]Man(b1-4)GlcNAc(b1-4)[Fuc(a1-6)]GlcNAc
# Summary of the method: as §1
# [10] = molecular target: Gal(b1-4)GlcNAc(b1-3)Gal(b1-4)GlcNAc(b1-3)Gal(b1-4)GlcNAc(b1-2)[Gal(b1-4)GlcNAc(b1-3)Gal(b1-4)GlcNAc(b1-3)Gal(b1-4)GlcNAc(b1-6)]Man(a1-6)[Gal(b1-4)GlcNAc(b1-3)Gal(b1-4)GlcNAc(b1-3)Gal(b1-4)GlcNAc(b1-2)Man(a1-3)]Man(b1-4)GlcNAc(b1-4)[Fuc(a1-6)]GlcNAc
# Summary of the method: as §1
# [11] = molecular target: Gal(b1-4)GlcNAc(b1-3)Gal(b1-4)GlcNAc(b1-3)Gal(b1-4)GlcNAc(b1-3)Gal(b1-4)GlcNAc(b1-2)Man(a1-3)[Gal(b1-4)GlcNAc(b1-3)Gal(b1-4)GlcNAc(b1-3)Gal(b1-4)GlcNAc(b1-3)Gal(b1-4)GlcNAc(b1-2)Man(a1-6)]Man(b1-4)GlcNAc(b1-4)GlcNAc
# Summary of the method: as §1
# [12] = molecular target: Gal(b1-4)GlcNAc(b1-3)Gal(b1-4)GlcNAc(b1-3)Gal(b1-4)GlcNAc(b1-3)Gal(b1-4)GlcNAc(b1-2)Man(a1-3)[Gal(b1-4)GlcNAc(b1-3)Gal(b1-4)GlcNAc(b1-3)Gal(b1-4)GlcNAc(b1-3)Gal(b1-4)GlcNAc(b1-2)Man(a1-6)]Man(b1-4)GlcNAc(b1-4)[Fuc(a1-6)]GlcNAc
# Summary of the method: as §1
# [13] = molecular target: Gal(b1-4)GlcNAc(b1-3)Gal(b1-4)GlcNAc(b1-3)Gal(b1-4)GlcNAc(b1-3)Gal(b1-4)GlcNAc(b1-2)[Gal(b1-4)GlcNAc(b1-3)Gal(b1-4)GlcNAc(b1-3)Gal(b1-4)GlcNAc(b1-3)Gal(b1-4)GlcNAc(b1-6)]Man(a1-6)[Gal(b1-4)GlcNAc(b1-3)Gal(b1-4)GlcNAc(b1-3)Gal(b1-4)GlcNAc(b1-3)Gal(b1-4)GlcNAc(b1-2)Man(a1-3)]Man(b1-4)GlcNAc(b1-4)[Fuc(a1-6)]GlcNAc
# Summary of the method: as §1
# [14] = molecular target: Gal(b1-4)GlcNAc(b1-3)Gal(b1-4)GlcNAc(b1-3)Gal(b1-4)GlcNAc(b1-3)Gal(b1-4)GlcNAc(b1-3)Gal(b1-4)GlcNAc(b1-2)Man(a1-3)[Gal(b1-4)GlcNAc(b1-3)Gal(b1-4)GlcNAc(b1-3)Gal(b1-4)GlcNAc(b1-3)Gal(b1-4)GlcNAc(b1-3)Gal(b1-4)GlcNAc(b1-2)Man(a1-6)]Man(b1-4)GlcNAc(b1-4)GlcNAc
# Summary of the method: as §1
# [15] = molecular target: Gal(b1-4)GlcNAc(b1-3)Gal(b1-4)GlcNAc(b1-3)Gal(b1-4)GlcNAc(b1-3)Gal(b1-4)GlcNAc(b1-3)Gal(b1-4)GlcNAc(b1-2)Man(a1-3)[Gal(b1-4)GlcNAc(b1-3)Gal(b1-4)GlcNAc(b1-3)Gal(b1-4)GlcNAc(b1-3)Gal(b1-4)GlcNAc(b1-3)Gal(b1-4)GlcNAc(b1-2)Man(a1-6)]Man(b1-4)GlcNAc(b1-4)[Fuc(a1-6)]GlcNAc
# Summary of the method: as §1
# [16] = molecular target: Gal(b1-4)GlcNAc(b1-3)Gal(b1-4)GlcNAc(b1-3)Gal(b1-4)GlcNAc(b1-3)Gal(b1-4)GlcNAc(b1-3)Gal(b1-4)GlcNAc(b1-2)[Gal(b1-4)GlcNAc(b1-3)Gal(b1-4)GlcNAc(b1-3)Gal(b1-4)GlcNAc(b1-3)Gal(b1-4)GlcNAc(b1-3)Gal(b1-4)GlcNAc(b1-6)]Man(a1-6)[Gal(b1-4)GlcNAc(b1-3)Gal(b1-4)GlcNAc(b1-3)Gal(b1-4)GlcNAc(b1-3)Gal(b1-4)GlcNAc(b1-3)Gal(b1-4)GlcNAc(b1-2)Man(a1-3)]Man(b1-4)GlcNAc(b1-4)[Fuc(a1-6)]GlcNAc
# Summary of the method: as §1
# [17] = molecular target: Gal(b1-4)GlcNAc(b1-3)Gal(b1-4)GlcNAc(b1-3)Gal(b1-4)GlcNAc(b1-3)Gal(b1-4)GlcNAc(b1-3)Gal(b1-4)GlcNAc(b1-3)Gal(b1-4)GlcNAc(b1-2)Man(a1-3)[Gal(b1-4)GlcNAc(b1-3)Gal(b1-4)GlcNAc(b1-3)Gal(b1-4)GlcNAc(b1-3)Gal(b1-4)GlcNAc(b1-3)Gal(b1-4)GlcNAc(b1-3)Gal(b1-4)GlcNAc(b1-2)Man(a1-6)]Man(b1-4)GlcNAc(b1-4)GlcNAc
# Summary of the method: as §1
# [18] = molecular target: Gal(b1-4)GlcNAc(b1-3)Gal(b1-4)GlcNAc(b1-3)GalNAc
# Summary of the method: as §1
# [19] = molecular target: Gal(b1-4)GlcNAc(b1-3)Gal(b1-4)GlcNAc(b1-3)[Gal(b1-4)GlcNAc(b1-3)Gal(b1-4)GlcNAc(b1-6)]GalNAc
# Summary of the method: as §1
binder,measurement,setting,value
B1,glycan array binding signal (z-score),[1],-0.582
same,glycan array binding signal (z-score),[2],-0.907
same,glycan array binding signal (z-score),[3],2.97
same,glycan array binding signal (z-score),[4],0.215
same,glycan array binding signal (z-score),[5],0.627
same,glycan array binding signal (z-score),[6],1.17
same,glycan array binding signal (z-score),[7],-0.298
same,glycan array binding signal (z-score),[8],1.92
same,glycan array binding signal (z-score),[9],2.12
same,glycan array binding signal (z-score),[10],1.02
same,glycan array binding signal (z-score),[11],-0.62
same,glycan array binding signal (z-score),[12],2.34
same,glycan array binding signal (z-score),[13],3.06
same,glycan array binding signal (z-score),[14],0.811
same,glycan array binding signal (z-score),[15],2.37
same,glycan array binding signal (z-score),[16],1.59
same,glycan array binding signal (z-score),[17],0.495
same,glycan array binding signal (z-score),[18],-0.343
same,glycan array binding signal (z-score),[19],0.36

# Random excerpt: 2 records from the list.
binder,measurement,setting,value
B1,glycan array binding signal (z-score),[1],-0.582
same,glycan array binding signal (z-score),[5],0.627
